Among the data in publication PMC9994480, “Infancy‐onset diabetes caused by de‐regulated AMPylation of the human endoplasmic reticulum chaperone BiP” (EMBO Molecular Medicine, 2023) are binding values, retold here.

The target in this assay is FICD^L258D-H363A (human) (UniProt Q9BVA6). In words: SEC; analytical SEC, Agilent Bio SEC-3 HPLC column, TNT buffer (25 mM Tris pH 8.0, 150 mM NaCl, 1 mM TCEP), 25°C; proteins diluted to a range of concentrations (Fig 3B) and incubated at least 1 h at room temperature; 0.3 ml/min; both purified.

No constants are given. Whether binding was seen depends on the method and setting.

B1: FICD^L258D-H363A (enzyme, UniProt Q9BVA6 104-445)
chain: LEARAALNQALEMKRQGKREKAQKLFMHALKMDPDFVDALTEFGIFSEEDKDIIQADYLYTRALTISPYHEKALVNRDRTLPLVEEIDQRYFSIIDSKVKKVMSIPKGNSALRRVMEETYYHHIYHTVAIEGNTLTLSEIRHILETRYAVPGKSDEEQNEVIGMHAAMKYINTTLVSRIGSVTISDVLEIHRRVLGYVDPVEAGRFRTTQVLVGHHIPPHPQDVEKQMQEFVQWLNSEEAMNLHPVEFAALAHYKLVYIAPFIDGNGRTSRLLMNLILMQAGYPPITIRKEQRSDYYHVLEAANEGDVRPFIRFIAKCTETTLDTLLFATTEYSVALPEAQP
Turning to B1, the binding result was “no binding”.
